Data reported in patent US7132258.
No constants are given. Whether binding was seen depends on the method and setting. Some binding calls cover weakened binding; strength is not graded here.

Chains of the proteins cited; added tags and fusions are not shown. Lines headed by an entry give the natural chain unless they say otherwise; changes in a name come on top.
UniProt Q9Y6Q9: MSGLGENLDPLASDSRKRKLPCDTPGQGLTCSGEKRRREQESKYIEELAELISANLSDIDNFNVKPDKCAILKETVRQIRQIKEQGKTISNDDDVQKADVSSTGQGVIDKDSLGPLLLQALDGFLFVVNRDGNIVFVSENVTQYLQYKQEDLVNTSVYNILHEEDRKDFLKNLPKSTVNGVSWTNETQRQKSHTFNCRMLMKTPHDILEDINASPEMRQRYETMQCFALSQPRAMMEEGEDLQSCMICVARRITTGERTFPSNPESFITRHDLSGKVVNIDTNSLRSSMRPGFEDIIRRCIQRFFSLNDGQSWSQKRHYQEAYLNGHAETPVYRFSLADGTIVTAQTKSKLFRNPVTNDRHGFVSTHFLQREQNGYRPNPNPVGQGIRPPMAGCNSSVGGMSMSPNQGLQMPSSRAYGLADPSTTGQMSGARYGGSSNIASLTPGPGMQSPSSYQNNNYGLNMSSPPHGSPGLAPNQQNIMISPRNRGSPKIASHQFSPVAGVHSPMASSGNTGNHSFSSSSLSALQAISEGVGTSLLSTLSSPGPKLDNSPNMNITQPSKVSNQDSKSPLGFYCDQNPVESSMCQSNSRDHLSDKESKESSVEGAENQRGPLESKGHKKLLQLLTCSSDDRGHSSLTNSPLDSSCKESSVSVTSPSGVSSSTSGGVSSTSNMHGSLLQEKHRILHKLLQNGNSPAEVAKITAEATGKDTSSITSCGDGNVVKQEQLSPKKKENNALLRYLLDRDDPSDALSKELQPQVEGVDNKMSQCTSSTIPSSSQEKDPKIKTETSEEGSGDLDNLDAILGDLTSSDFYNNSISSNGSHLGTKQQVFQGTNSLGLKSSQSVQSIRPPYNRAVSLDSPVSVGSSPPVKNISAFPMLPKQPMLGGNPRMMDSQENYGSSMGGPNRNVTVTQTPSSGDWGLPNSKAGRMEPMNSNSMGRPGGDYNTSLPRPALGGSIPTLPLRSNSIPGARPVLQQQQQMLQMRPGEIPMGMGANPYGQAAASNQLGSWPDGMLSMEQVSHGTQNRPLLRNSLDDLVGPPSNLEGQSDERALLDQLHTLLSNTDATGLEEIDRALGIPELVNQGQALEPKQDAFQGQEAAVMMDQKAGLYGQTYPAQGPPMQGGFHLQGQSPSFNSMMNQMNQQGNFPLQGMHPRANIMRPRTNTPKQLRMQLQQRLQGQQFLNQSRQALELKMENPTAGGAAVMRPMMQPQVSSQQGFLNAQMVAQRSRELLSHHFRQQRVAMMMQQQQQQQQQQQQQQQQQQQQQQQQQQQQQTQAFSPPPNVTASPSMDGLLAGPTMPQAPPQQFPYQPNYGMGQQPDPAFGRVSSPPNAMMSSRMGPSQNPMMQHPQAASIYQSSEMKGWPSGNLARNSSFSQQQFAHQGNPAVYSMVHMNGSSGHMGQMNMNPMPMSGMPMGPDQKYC

Target: T1, 35S-labeled hTRβ (in vitro translated; printed hTRp) (human) (UniProt P10828)
T1 sequence (looked up): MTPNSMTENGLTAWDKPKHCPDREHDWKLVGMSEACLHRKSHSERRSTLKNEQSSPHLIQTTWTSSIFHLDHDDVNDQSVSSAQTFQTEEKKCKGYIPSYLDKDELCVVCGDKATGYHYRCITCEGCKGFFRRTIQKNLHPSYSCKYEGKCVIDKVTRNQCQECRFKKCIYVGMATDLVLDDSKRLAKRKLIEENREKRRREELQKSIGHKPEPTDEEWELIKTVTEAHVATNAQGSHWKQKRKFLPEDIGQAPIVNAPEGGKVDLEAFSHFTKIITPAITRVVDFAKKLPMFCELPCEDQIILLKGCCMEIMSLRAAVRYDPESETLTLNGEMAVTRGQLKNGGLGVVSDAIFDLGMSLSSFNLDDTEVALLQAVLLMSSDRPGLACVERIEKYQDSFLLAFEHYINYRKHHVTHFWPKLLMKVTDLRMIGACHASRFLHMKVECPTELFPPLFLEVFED
Experiment: far-Western, GST-RAC3-RID on the filter, 35S-labeled receptor, 1 µM T3

GST-RAC3-RID fusion (from UniProt Q9Y6Q9 613-752)
binding: binds
